Results are given in words; binding and its absence hold for the method and conditions named. For some of these results: In cells and extracts the contact can be indirect. Some results given as binding are weak or reduced against the parent protein; the word gives no strength.
Legend:
[1] = target: T1, peptide shown in SEQ ID NO: 63 (partial CAPRIN-1 sequence) (human); assay: ELISA, peptide (30 µg/mL solution) coupled to Immobilizer Amino plate, culture supernatant of #14
T1 sequence (peptide): FTSGEKEQVDEW

[2] = target: dog CAPRIN-1 in dog breast cancer tissues (dog); assay: immunohistochemical staining of frozen dog breast cancer tissue sections, 10 µg/mL antibody
[3] = target: T2, human CAPRIN-1 as expressed on human breast cancer cell line MDA-MB-231V and in human cancer tissues (human) (UniProt Q14444); assay: immunohistochemical staining of paraffin-embedded human cancer tissue arrays, 10 µg/mL antibody
T2 sequence (looked up): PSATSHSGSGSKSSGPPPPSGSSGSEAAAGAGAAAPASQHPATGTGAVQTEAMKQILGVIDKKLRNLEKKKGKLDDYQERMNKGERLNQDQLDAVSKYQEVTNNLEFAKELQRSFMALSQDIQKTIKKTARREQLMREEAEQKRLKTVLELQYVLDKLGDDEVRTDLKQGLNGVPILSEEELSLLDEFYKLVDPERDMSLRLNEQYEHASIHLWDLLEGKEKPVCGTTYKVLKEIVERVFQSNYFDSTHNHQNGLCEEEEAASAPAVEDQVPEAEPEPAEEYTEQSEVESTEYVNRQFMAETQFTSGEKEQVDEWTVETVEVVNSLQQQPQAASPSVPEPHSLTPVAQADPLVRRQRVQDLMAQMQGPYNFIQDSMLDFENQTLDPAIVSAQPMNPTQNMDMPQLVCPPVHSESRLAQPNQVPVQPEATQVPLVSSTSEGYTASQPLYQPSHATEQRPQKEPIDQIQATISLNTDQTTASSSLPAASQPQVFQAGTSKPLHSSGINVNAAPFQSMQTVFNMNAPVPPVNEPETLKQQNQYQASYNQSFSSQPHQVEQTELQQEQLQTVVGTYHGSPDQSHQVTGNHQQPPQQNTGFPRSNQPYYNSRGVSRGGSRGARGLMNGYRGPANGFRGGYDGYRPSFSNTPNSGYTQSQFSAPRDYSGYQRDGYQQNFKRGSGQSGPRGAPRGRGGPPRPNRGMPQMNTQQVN

[4] = target: T2, human CAPRIN-1 as expressed on human breast cancer cell line MDA-MB-231V and in human cancer tissues (human); assay: flow cytometry on MDA-MB-231V cells expressing CAPRIN-1
[5] = target: T3, mouse CAPRIN-1 in tumor tissue from transplanted mouse cancer cells (EMT-6, B16F10) (mouse) (UniProt Q60865); assay: immunohistochemical staining of frozen EMT-6 tumor sections from mice, 10 µg/mL antibody
T3 sequence (looked up): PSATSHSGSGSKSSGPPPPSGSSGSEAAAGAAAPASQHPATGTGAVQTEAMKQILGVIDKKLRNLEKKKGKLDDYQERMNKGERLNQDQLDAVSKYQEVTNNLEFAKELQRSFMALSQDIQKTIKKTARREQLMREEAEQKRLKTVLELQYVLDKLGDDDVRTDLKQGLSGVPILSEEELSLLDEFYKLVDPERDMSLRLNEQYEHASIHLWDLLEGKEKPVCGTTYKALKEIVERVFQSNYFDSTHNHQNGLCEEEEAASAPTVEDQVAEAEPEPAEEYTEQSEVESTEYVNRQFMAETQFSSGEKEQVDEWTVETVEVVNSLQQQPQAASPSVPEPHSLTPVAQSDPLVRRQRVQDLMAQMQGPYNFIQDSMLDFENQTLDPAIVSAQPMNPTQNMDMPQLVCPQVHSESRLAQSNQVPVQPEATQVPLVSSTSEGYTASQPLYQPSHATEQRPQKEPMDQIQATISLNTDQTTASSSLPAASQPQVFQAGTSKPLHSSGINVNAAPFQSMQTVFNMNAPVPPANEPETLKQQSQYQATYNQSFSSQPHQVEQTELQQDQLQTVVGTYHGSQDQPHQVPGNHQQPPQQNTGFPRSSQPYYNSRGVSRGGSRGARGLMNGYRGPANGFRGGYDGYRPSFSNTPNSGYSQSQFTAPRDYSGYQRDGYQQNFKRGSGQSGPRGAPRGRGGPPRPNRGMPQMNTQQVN

[6] = target: T2, human CAPRIN-1 as expressed on human breast cancer cell line MDA-MB-231V and in human cancer tissues (human); assay: immunohistochemical staining of paraffin-embedded human breast cancer tissue arrays, 10 µg/mL antibody
[7] = target: T4, peptide consisting of the amino acid sequence shown in SEQ ID NO: 66 (partial CAPRIN-1 sequence) (human); assay: trypsin or chymotrypsin digestion of antibody-bound recombinant CAPRIN-1, protein G pull-down, MS/MS
T4 sequence (peptide): QQPQAASPSVPE

Measured: binding

B1: mouse anti-human CAPRIN-1 monoclonal antibody #14 (antibody, V domains shown)
VH: GAELVKPGASVKLSCTASGLNIRDIYMHWVKQRPEQGLEWIGKIDPANGNTKYDPKFQGKATITADTSSNTAYVQLSSLTSEDTAVYYCAGTGDYWGQGTTVTVSS
VL: GTCGDIVMSQSPSSLAVSAGEKVTMSCKSSQSLLNSRTRKNYLAWVQHKPGQSPRLLIYWASTRESGVPDRFTGSGSGTDFTLTISSVQAEDLAVYYCRQSYNLVTFGAGPS
not listed: [7]
binds: all other assays above

B2: chicken anti-human CAPRIN-1 monoclonal antibody #11 (antibody, V domains shown)
VH: AVTLDESGGGLQMSRGGLSLVCKASGFDFSSYQMNWIRQAPGKGLEFVAAINKFGNSTGHGAAVKGRVTISRDNGQSTVRLQLNNLRAEDTAIYFCTKHAYGYCGSGTWCAAGEIDAWGHGTEVIVSS
VL: QAASTQPSSVSANPGETVEITCSGGGSYSYGWFQQKSPGSAPVTVIYYNNKRPSDIPSRFSGSKSGSTGTLTITGVQADDEAVYYCGSGDSTDTAVFGAGTTLTVLG
notes: Chicken hybridoma antibody; also called chicken monoclonal antibody #11
binds: [7]
